Measured values reported in patent US6815187.
These are yes or no findings as the source states them, for the method shown. Some results given as binding are weak or reduced against the parent protein; the word gives no strength.

Biological target: PKCα of RFPEC lysate (rat) (UniProt P05696)
Test: immunoprecipitation of RFPEC lysate with syndecan-4 cytoplasmic tail-specific antiserum, immunoblot with polyclonal antibody to PKCα

B1: syndecan-4 cytoplasmic tail immunoprecipitated from RFPEC lysate (receptor, rat, UniProt P34901 148-202, looked up)
chain: TEVLAALIVGGVVGILFAVFLILLLVYRMKKKDEGSYDLGKKPIYKKAPTNEFYA
  binding: binds
